Source: PubChem BioAssay AID540256 (National Center for Advancing Translational Sciences (NCATS), 2011)
Screen size: about 300,000 compounds; about 3,700 (1.2%) were called active. Inconclusive means that the source gave no clear call. Such entries were picked first, then a sample of the others. Calls follow the shape of the full dose curve; tested in HEK293 cells. Potencies of inconclusive entries are doubtful fits and often do not repeat.

Experiment: qHTS for Inhibitors of binding or entry into cells for Lassa Virus; also: nearly all actives have a fitted effect of over 50% in size
Conditions: Lassa virus pseudotype entry inhibition, cell reporter; activity change, negative = inhibition: at 37.9 µM (top of the series) unless noted
% is scaled to controls: 0 for no effect and ±100 for the full control effect; potency is read from the fitted curve at half-maximal effect.

Row | Compound | Potency | activity change, negative = inhibition
1 | CC(=O)Nc1ccc(NS(=O)(=O)c2ccc(C)cc2)cc1[N+](=O)[O-] | inconclusive: 2 µM [inhibitor, single point] | 
2 | C=CCOc1ccc(/C=N/NC(=O)CN(c2cc(Cl)ccc2OC)S(=O)(=O)c2ccc(C)c([N+](=O)[O-])c2)cc1 | inconclusive: 1.26 µM [inhibitor, partial curve] | 
3 | CCOC(=O)CNc1c(-c2ccccc2)nc2ccc(Cl)cn12 | inconclusive: 14.6 µM [activator, single point] | 
4 | Cc1ccc(S(=O)(=O)N2c3ccccc3NC(=O)CC2C)cc1 (stereo not drawn) |  | inactive: 20.7%
5 | COc1ccc(Br)cc1CNC(=O)c1ccc2c(c1)nc1n2CCCCC1 | inconclusive: 35.5 µM [inhibitor, partial curve, poor fit] | 
6 | COc1ccc(OC)c(CNC(=O)C2COc3ccccc3C2)c1 (stereo not drawn) |  | inactive: 4.83% [at 46.1 µM]
7 | Cc1nnc2ccc(N3CCN(C)CC3)nn12 |  | inactive: 19.1%
8 | CCOC(=O)Cc1ccc(NC(=O)N2CC(CC)Oc3ccccc32)cc1 (stereo not drawn) |  | inactive: -18% [at 46.1 µM]
9 | Cn1c(=O)c2[nH]c(NN=Cc3cccc(Br)c3)nc2n(C)c1=O | inconclusive: 35.5 µM [inhibitor, single point] | 
10 | Cc1noc(C)c1CSCC(=O)Nc1nnc(CC(C)C)s1 | inconclusive: 1.26 µM [activator, full curve, poor fit] | 
11 | Cc1nc2c(nc1C)C(=O)c1ccccc1C2=O | inconclusive: 25.1 µM [inhibitor, single point] | 
12 | COc1cc(/C=N/NC(N)=S)cc(Br)c1OCc1ccccc1F | inconclusive: 10 µM [inhibitor, partial curve, poor fit] | 
13 | Cc1c(C)n(Cc2ccccc2)c2ncnc(NCCO)c12 |  | inactive: 0.26% [at 46.1 µM]
14 | Cc1cc(OCc2nc3ccccc3s2)ccc1N | inconclusive: 35.5 µM [inhibitor, single point] | 
15 | Cc1ccc([C@H]2C[C@@H](O)[C@H](n3cc(COC(=O)c4ccccc4)nn3)CN2C(=O)C2CCCCC2)cc1 | inconclusive: 0.141 µM [inhibitor, full curve, poor fit] | 
16 | CC(=O)N1CCCc2cc(S(=O)(=O)Nc3cccc(C)c3C)ccc21 | inconclusive: 7.94 µM [inhibitor, partial curve, poor fit] | 
17 | O=C(CCCc1ccccc1)Nc1nncs1 | inconclusive: 0.708 µM [activator, partial curve, poor fit] | 
18 | CCOc1ccccc1NC(=O)C(C)N1C(=O)c2ccccc2S1(=O)=O (stereo not drawn) | inconclusive: 12.6 µM [activator, partial curve, poor fit] | 
19 | Cc1ccc2nc(-c3ccc(NC(=O)c4ccco4)cc3)[nH]c2c1 | inconclusive: 18.3 µM [inhibitor, single point] | 
20 | O=C(NCCc1ccccc1)/C(=N\O)c1ccccc1 | inconclusive: 5.62 µM [activator, single point] | 
21 | O=C(CSC1=NNC(c2ccccn2)S1)Nc1ccc(C(F)(F)F)cc1 (stereo not drawn) | inconclusive: 22.4 µM [inhibitor, single point] | 
22 | Cc1nccn1-c1c([N+](=O)[O-])c(=O)n(C)c2ccccc12 | inconclusive: 31.6 µM [inhibitor, single point] | 

Row | Compound | Potency | activity change, negative = inhibition
23 | Cc1ccc(-c2csc(Nc3ccccn3)n2)cc1 | inconclusive: 1 µM [inhibitor, full curve] | 
24 | Cc1cccc(N2CCN(C(=O)c3ccc(Cl)c(S(=O)(=O)N4CCc5ccccc5C4)c3)CC2)c1C | inconclusive: 14.1 µM [inhibitor, partial curve, poor fit] | 
25 | O=C1C(C=NCc2ccccn2)=C(O)c2ccccc21 | inconclusive: 2.31 µM [activator, single point] | 
26 | COc1ccc(CNC(=O)N2CCN(C(=O)c3ccccc3)CC2)cc1 |  | inactive: 10.5%
27 | O=C1c2[nH]nc(-c3ccccc3O)c2C(c2ccc(F)cc2)N1Cc1ccco1 (stereo not drawn) | active: 8.2 µM | 
28 | CCOC(=O)N1CCC(N(C(=O)Nc2ccc(CC)cc2)C(C)CC)CC1 (stereo not drawn) |  | inactive: -8.96%
29 | Cc1c(NS(=O)(=O)c2ccccc2)ccc([N+](=O)[O-])c1Cl | inconclusive: 22.4 µM [inhibitor, partial curve, poor fit] | 
30 | O=C(NC(=S)Nc1ccccc1)c1cc(-c2ccccc2)nc2ccccc12 |  | inactive: -23.4%
31 | Cc1cc(O)c(S(=O)(=O)c2ccccc2)c(C)c1NS(=O)(=O)c1ccccc1 |  | inactive: 0.86%
32 | O=C(Nc1cccc(S(=O)(=O)c2cccc(NC(=O)c3ccco3)c2)c1)c1ccco1 | inconclusive: 35.5 µM [inhibitor, single point] | 
33 | O=C(Nc1nnc(SCc2ccc(F)cc2)s1)c1ccccn1 | inconclusive: 5.01 µM [inhibitor, full curve, poor fit] | 
34 | Cc1csc(SCC(=O)Nc2cc(C(C)(C)C)nn2-c2ccccc2)n1 | inconclusive: 32.6 µM [inhibitor, single point] | 
35 | CCC(=O)N1CCc2cc(OC)c(OC)cc2C1COc1ccc(C(=O)OC)cc1 (stereo not drawn) | inconclusive: 18.3 µM [inhibitor, partial curve, poor fit] | 
36 | Cc1nn(Cc2ccccc2)c(C)c1C(=O)OCC(=O)c1cc(C)n(C2CC2)c1C | active: 14.6 µM | 
37 | Cc1ccc(C(=O)NC2CCN(C(=O)Nc3ccccc3Cl)CC2)cc1 | inconclusive: 1.26 µM [inhibitor, single point] | 
38 | COc1ccc(/C=N/NC(=O)CSc2ccccc2)cc1OC | inconclusive: 11.6 µM [inhibitor, partial curve] | 
39 | Cc1ccc(C(C)C)c(OCc2nnc(SCC(=O)Nc3ncc(C)s3)n2C)c1 | inconclusive: 13 µM [inhibitor, partial curve, poor fit] | 
40 | CCCOc1ccc(C(=O)C(CN2CCCC2)c2ccccc2)cc1 (stereo not drawn) | inconclusive: 11.2 µM [inhibitor, partial curve, poor fit] | 
41 | COc1ccc(NC(=O)c2ccco2)cc1NC(=O)COc1ccc(C)cc1C |  | inactive: -0.148% [at 46.1 µM]
42 | Cc1cccc(C)c1N1CCN(c2ccc3nnc(C(F)(F)F)n3n2)CC1 | inconclusive: 35.5 µM [inhibitor, partial curve, poor fit] | 
43 | COc1ccc2ncn(-c3cc(OC(C)c4ccccc4Cl)c(C(N)=O)s3)c2c1 (stereo not drawn) | active: 0.0996 µM | 

Exported field by field: 2 of the compounds above
CCOC(=O)N1CCC(N(C(=O)Nc2ccc(CC)cc2)C(C)CC)CC1 (stereo not drawn)
  activity change, negative = inhibition: inactive: -8.96%
Cc1c(NS(=O)(=O)c2ccccc2)ccc([N+](=O)[O-])c1Cl
  Potency: inconclusive: 22.4 µM [inhibitor, partial curve, poor fit]
